# Data: patent publication US8298781B2, “Compositions and methods for characterizing and regulating olfactory sensation” (Duke University, priority 2007, dated 2012)
# What was measured:
# [1] = test system: human subjects; assay: Human olfactory psychophysics: detection thresholds (single staircase method); assay type: in vivo; conditions: two sessions at least four days apart
# Protocol: Human olfactory psychophysics. All human subjects gave informed consent to participate in this study and were tested in a well-ventilated room. Normal human subjects (n=412; 218 female, 194 male; median age 34, age range 19-75) were pre-screened to exclude pregnant women and those with medical conditions causing general impairment of the sense of smell. All subjects completed two replicates of the test separated by at least 4 days. Odors were presented in amber vials as previously described (see, e.g., Keller, A., et al., Nat Neurosci 7, 337-338 (2004); herein incorporated by reference in its entirety) using bar-coded symbols to ensure that subjects were blind to the identity of all odors. […] Thresholds were calculated using the single staircase method with seven reversals (see, e.g., Doty, R. L., et al., Chem Senses 20, 645-656 (1995); Doty, R. L. & Laing, D. G. in Handbook of Olfaction and Gustation (ed. Doty, R. L.) pp. 203-228 (Marcel Dekker, Inc., New York, 2003); each of which are herein incorporated by reference in their entireties). […]
# Threasholding. Detection thresholds (FIG. 3c and FIG. 5b-c) were determined using the “Single Staircase Threshold Detection Method” (see, e.g., Buck, L., et al., Cell 65, 175-187 (1991); Menashe, I., et al., Nat Genet. 34, 143-144 (2003); each of which are herein incorporated by reference in their entireties). […]
# [2] = test system: human subjects; assay: Human olfactory psychophysics: odor profiling with 146 descriptors; assay type: in vivo; conditions: out of 146 descriptors
# Protocol: Human olfactory psychophysics. All human subjects gave informed consent to participate in this study and were tested in a well-ventilated room. Normal human subjects (n=412; 218 female, 194 male; median age 34, age range 19-75) were pre-screened to exclude pregnant women and those with medical conditions causing general impairment of the sense of smell. All subjects completed two replicates of the test separated by at least 4 days. Odors were presented in amber vials as previously described (see, e.g., Keller, A., et al., Nat Neurosci 7, 337-338 (2004); herein incorporated by reference in its entirety) using bar-coded symbols to ensure that subjects were blind to the identity of all odors. The intensity and valence of 66 odors at two concentrations (“high” and “low”) and two solvents was rated using a 7-point scale. Thresholds were calculated using the single staircase method with seven reversals (see, e.g., Doty, R. L., et al., Chem Senses 20, 645-656 (1995); Doty, R. L. & Laing, D. G. in Handbook of Olfaction and Gustation (ed. Doty, R. L.) pp. 203-228 (Marcel Dekker, Inc., New York, 2003); each of which are herein incorporated by reference in their entireties). Threshold tests included both steroids as binary dilutions from […] (binary dilution 6) to 1: 134,217,728 (binary dilution 27). […]
# Assigning descriptors to odors. Subjects assessed the quality of six odors using an odor profiling method that has shown to produce stable profiles of odorants. […] Odor profiling typically took five minutes per odorant and was performed as a computer-controlled selftest in which the subject's responses were directly recorded. […] The descriptors used to describe the other four odors (vanillin, pentadecalactone, androstenone, and propylene glycol) were evaluated. […]
SMILES,average difference between the thresholds determined on the two days [1],number of descriptors used in more than 100% of the sessions [2]
"C[C@@]12C=CC[C@H]1[C@@H]1CCC3=CC(=O)CC[C@]3(C)[C@H]1CC2 [androstadienone, androsta-4,16-dien-3-one]",five,–
"C[C@]12CCC(=O)C[C@@H]1CC[C@@H]1[C@@H]2CC[C@]2(C)C=CC[C@@H]12 [androstenone, 5α-androst-16-en-3-one]",three,21/146
O=C1CCCCCCCCCCCCCCO1 [pentadecalactone],–,19/146
COc1cc(C=O)ccc1O [vanillin],–,23/146
